# Test results taken from PubChem BioAssay AID1259415 (National Center for Advancing Translational Sciences (NCATS), 2018).
# About 18,000 (4.4%) of roughly 410,000 compounds were called active. The shares of active, inactive and inconclusive entries below differ from those in the screen. No stated cut-off is given here; in the data, active means activity change below about -60%; inconclusive means no clear call, values can overlap the other calls; inactive means above about -39%.
# Experiment: qHTS Assay for inhibitors of the human cytomegalovirus (HCMV)
# Conditions: HFF cells, HCMV-luciferase reporter, 72 h; at 57.5 µM; stronger effect = lower value
# In short: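 Human foreskin fibroblasts infected with luciferase-reporter HCMV at MOI 1 PFU/cell, compounds at two doses. Luciferase measured 72 h post infection; normalized to buffer-only basal and Salinomycin (10uM) controls.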
# On the % scale 0 is the no-effect control and ±100 the full control effect.
row,SMILES,"activity change, negative = inhibition"
1,CC1CC(C)CN(C(=O)CN2C(=O)NC3(CCCCCCC3)C2=O)C1 (centres undefined),inconclusive: -44.2%
2,COc1ccc(-c2c(C)n([O-])c3c([n+]2=O)CCCCC3)cc1,inconclusive: -42.7%
3,CC(=O)Nc1ccc(S(=O)(=O)Oc2ccccc2N2CCCCC2)cc1,inconclusive: -44.8%
4,Cn1c(N)c(C(=O)COC(=O)C2CCC(C(C)(C)C)CC2)c(=O)n(C)c1=O (centres undefined),inconclusive: -42.9%
5,Cc1c(C(=O)O)sc(=S)n1-c1ccc(Cl)cc1,inconclusive: -45.2%
6,CCOC(=O)c1cnc2cc(-c3ccc(OCC)cc3)nn2c1-c1ccccc1,inconclusive: -53.3%
7,COc1ccc(S(=O)(=O)Nc2cc3c4c(c2)CC(=O)N4CCC3)cc1OC,inconclusive: -45.9%
8,CCN(c1ccccc1)S(=O)(=O)c1ccc(C(=O)NCCCn2ccnc2)cc1,inconclusive: -41.8%
9,CCOC(=O)C1=CCN(S(=O)(=O)c2ccc(Cl)cc2)C1c1cccc(Br)c1 (centres undefined),inactive: -29.5%
10,Cc1c(NC(=O)c2cnn3c(C(F)(F)F)cc(-c4ccco4)nc23)c(=O)n(-c2ccccc2)n1C,active: -62.4%
11,COc1ccc(N=C(C)C2=C(O)COC2=O)cc1,inconclusive: -48.3%
12,c1ccc2sc(Sc3ncnc4sccc34)nc2c1,inactive: 155%
13,O=C(Nc1cccc(S(=O)(=O)N2CCCCC2)c1)c1cc(=O)[nH]c2ccccc12,inactive: 4.4%
14,O=S(=O)(c1ccc(N2CC=C(c3ccccc3)CC2)nc1)N1CCCC1,inconclusive: -51.4%
15,COC(=O)C1=C(O)/C(=C\c2cc(C)n(-c3ccccc3F)c2C)N=C1C,inactive: -8.86%
16,CC[C@@H]1CCCCc2ccccc2[C@@H](C(=O)C[C@@H](O)CC(C)=O)OC1=O,inconclusive: -44.2%
17,Cc1cccc(C(=O)Nc2nnc(-c3cccnc3)o2)c1,inactive: 11.7%
18,COCCN(C(=S)Nc1ccc(OC)cc1)C(C)c1cccs1 (centres undefined),inconclusive: -49%
19,Brc1ccc(/C=N/n2cnnc2)s1,inactive: -17.8%
20,O=C(Nc1ccncc1)Nc1ccc(Br)cc1Cl,inconclusive: -56.4%
21,OCC1(Cc2ccccc2C(F)(F)F)CCN(Cc2cccc3cnccc23)CC1,inconclusive: -44.6%
22,CC(=O)c1ccc(NC(=S)NC(=O)/C=C/c2ccccc2)cc1,inconclusive: -57.4%
23,COc1ccc(-n2nc(C(=O)NCC(=O)NC3CCCCC3)c3ccccc3c2=O)c(OC)c1,inactive: 22.5%

row,SMILES,"activity change, negative = inhibition"
1,Cc1ccc(S(=O)(=O)N2CCN(C(=O)c3cc(-c4ccc(Br)cc4)n[nH]3)CC2)c(C)c1,inconclusive: 0%
2,COc1cccc(-n2nc(-c3ccnn3-c3ccc(C)cc3)c(=O)n(C)c2=O)c1,inconclusive: -46%
3,CCN(C(=O)c1cnc(NC(C)C)cc1C(F)(F)F)c1ccc(Cl)cc1,inactive: -22.7%
4,CCCC(=O)NC1=C(Cl)C(=O)c2ccccc2C1=O,inconclusive: -50.9%
5,COc1ccc(NC(=O)CN2C(=O)c3cccc4cccc2c34)c(OC)c1,inactive: -11.7%
6,COc1ccc(C(C(=O)NC(C)(C)C)n2c(-c3ccccc3Br)nc3cc(C)c(C)cc32)cc1 (centres undefined),inconclusive: -40.6%
7,O=C(C1=C[C@@H](C2CC2)C[C@@H](OCc2ccc(CO)cc2)O1)N1CCOCC1,inconclusive: -59.9%
8,Cc1ccc(C(=O)/C=C/c2ccc(F)cc2)o1,inconclusive: -54.4%
9,O=C(/C=C/c1ccc(Cl)cc1)N(c1ccccn1)C1CCCCC1,inconclusive: -52.3%
10,COCC[N+]1(C)CCCCC1,inconclusive: -40.1%
11,Cc1cc(/C=N/NC(=O)c2ccccc2F)c(C)n1-c1ccccc1,inconclusive: -48.9%
12,COc1ccc(OC)c(CC(=O)NC(c2ccccc2)c2ccccc2)c1,inactive: -31.2%
13,Cc1ccc(N2C(=O)[C@@H]3[C@H](C2=O)C2CCCN2[C@@H]3C(=O)c2ccccc2)cc1 (some centres undefined),inconclusive: -41.8%
14,O=C(Nc1ccc(Cl)c(Cl)c1)N(Cc1cccnc1)Cc1ccco1,inconclusive: -46.9%
15,CCOCCCNc1nc(C(F)(F)F)nc2c1nnn2Cc1ccccc1Cl,inconclusive: -51.7%
16,CCCCOc1c(C(=O)Nc2ccccc2)nnn1-c1ccccc1,inconclusive: -53.8%
17,CN(c1ccccc1)S(=O)(=O)c1cccc(C(=O)Nc2ccc3c(c2)CCC3)c1,inconclusive: -52.7%
18,CC(C)N1CC=C(c2c[nH]c3ccccc23)CC1,active: -66.7%
19,O=C(N/N=C/c1ccc(Cl)cc1)Nc1ccccc1,inactive: 14%
20,CCCC(=O)N1CCCC(c2cc(C(=O)Nc3ccccc3)no2)C1 (centres undefined),inconclusive: -45.8%
21,C=CS(=O)(=O)c1sc(Cl)c(N2CCOCC2)c1[N+](=O)[O-],active: -72.5%
22,Cc1cccc(CC(c2cccc(C)c2)N(C)C)c1 (centres undefined),inconclusive: -41%
23,Cc1ccc(O)c(C(=O)c2cnc3c(c2)c(-c2ccc(F)cc2)c(C#N)c(=O)n3C)c1,inconclusive: -57.9%

# Sorted by length of the SMILES (rising): some entries from above
row,SMILES,"activity change, negative = inhibition"
10,COCC[N+]1(C)CCCCC1,inconclusive: -40.1%
19,Brc1ccc(/C=N/n2cnnc2)s1,inactive: -17.8%
12,c1ccc2sc(Sc3ncnc4sccc34)nc2c1,inactive: 155%
11,COc1ccc(N=C(C)C2=C(O)COC2=O)cc1,inconclusive: -48.3%
18,CC(C)N1CC=C(c2c[nH]c3ccccc23)CC1,active: -66.7%
5,Cc1c(C(=O)O)sc(=S)n1-c1ccc(Cl)cc1,inconclusive: -45.2%
4,CCCC(=O)NC1=C(Cl)C(=O)c2ccccc2C1=O,inconclusive: -50.9%
17,Cc1cccc(C(=O)Nc2nnc(-c3cccnc3)o2)c1,inactive: 11.7%
18,COCCN(C(=S)Nc1ccc(OC)cc1)C(C)c1cccs1 (centres undefined),inconclusive: -49%
16,CCCCOc1c(C(=O)Nc2ccccc2)nnn1-c1ccccc1,inconclusive: -53.8%
20,CCCC(=O)N1CCCC(c2cc(C(=O)Nc3ccccc3)no2)C1 (centres undefined),inconclusive: -45.8%
14,O=C(Nc1ccc(Cl)c(Cl)c1)N(Cc1cccnc1)Cc1ccco1,inconclusive: -46.9%
3,CC(=O)Nc1ccc(S(=O)(=O)Oc2ccccc2N2CCCCC2)cc1,inconclusive: -44.8%
2,COc1ccc(-c2c(C)n([O-])c3c([n+]2=O)CCCCC3)cc1,inconclusive: -42.7%
5,COc1ccc(NC(=O)CN2C(=O)c3cccc4cccc2c34)c(OC)c1,inactive: -11.7%
3,CCN(C(=O)c1cnc(NC(C)C)cc1C(F)(F)F)c1ccc(Cl)cc1,inactive: -22.7%
8,CCN(c1ccccc1)S(=O)(=O)c1ccc(C(=O)NCCCn2ccnc2)cc1,inconclusive: -41.8%
15,COC(=O)C1=C(O)/C(=C\c2cc(C)n(-c3ccccc3F)c2C)N=C1C,inactive: -8.86%
2,COc1cccc(-n2nc(-c3ccnn3-c3ccc(C)cc3)c(=O)n(C)c2=O)c1,inconclusive: -46%
4,Cn1c(N)c(C(=O)COC(=O)C2CCC(C(C)(C)C)CC2)c(=O)n(C)c1=O (centres undefined),inconclusive: -42.9%
13,O=C(Nc1cccc(S(=O)(=O)N2CCCCC2)c1)c1cc(=O)[nH]c2ccccc12,inactive: 4.4%
7,O=C(C1=C[C@@H](C2CC2)C[C@@H](OCc2ccc(CO)cc2)O1)N1CCOCC1,inconclusive: -59.9%
23,COc1ccc(-n2nc(C(=O)NCC(=O)NC3CCCCC3)c3ccccc3c2=O)c(OC)c1,inactive: 22.5%
23,Cc1ccc(O)c(C(=O)c2cnc3c(c2)c(-c2ccc(F)cc2)c(C#N)c(=O)n3C)c1,inconclusive: -57.9%
6,COc1ccc(C(C(=O)NC(C)(C)C)n2c(-c3ccccc3Br)nc3cc(C)c(C)cc32)cc1 (centres undefined),inconclusive: -40.6%
13,Cc1ccc(N2C(=O)[C@@H]3[C@H](C2=O)C2CCCN2[C@@H]3C(=O)c2ccccc2)cc1 (some centres undefined),inconclusive: -41.8%
10,Cc1c(NC(=O)c2cnn3c(C(F)(F)F)cc(-c4ccco4)nc23)c(=O)n(-c2ccccc2)n1C,active: -62.4%

# Further records follow:

row,SMILES,"activity change, negative = inhibition"
1,COc1ccc(N(CCC(=O)O)S(=O)(=O)c2ccc(C)c(C)c2)cc1,inconclusive: -41.9%
2,Cc1ccc(S(=O)(=O)CCC(=O)OCc2ccccc2F)cc1,inactive: 11.8%
3,CCOC(=O)N1CCC(N2Cc3cccc(C(=O)N4CCN(C5CCCCC5)CC4)c3C2=O)CC1,inconclusive: -51%
4,N#Cc1ccc(/C=C/C(=O)c2ccco2)cc1,inconclusive: -43.5%
5,COC(=O)c1ccc(NC(=O)CC2C(=O)N(c3ccc(Cl)cc3)C(=O)N2Cc2cccs2)cc1 (centres undefined),inactive: -14.1%
6,Oc1cccc(Oc2ncc(C(F)(F)F)cc2Cl)c1,inconclusive: -53.4%
7,C[N+]1(CC(=O)OCCCc2ccccc2)CCOCC1,inconclusive: -56%
8,Cc1sc2nc(C)n(/N=C/c3ccccc3O)c(=O)c2c1C,inconclusive: -43.8%
9,O=C(CN1C(=O)c2cccnc2Oc2ccc(Cl)cc21)N1CCCC1,inactive: -33.5%
10,Cc1cc(C)n2nc(SCC(=O)c3cc(C)n(-c4cc(C)on4)c3C)nc2n1,inconclusive: -49.8%
11,CCN(CC)S(=O)(=O)c1ccc(Cl)c(NC(=O)COC(=O)c2ccc(O)cc2)c1,inactive: 2.72%
12,O=C(CSc1nnc(-c2cccnc2)o1)Nc1ccc(F)cc1,active: -76.1%
13,Cc1ccccc1NC(=S)NCc1ccc2[nH]c3c(c2c1)CCCC3,inconclusive: -41.4%
14,COc1c(C(=O)Nc2ccc3[nH]c(=O)[nH]c3c2)cc2ccccc2c1Br,inconclusive: -52.5%
15,COc1cccc(N2C(=O)NC(=O)/C(=C/c3ccc4c5c(cccc35)CC4)C2=O)c1,active: -101%
16,COc1ccc(O)c(-c2[nH]ncc2C(=O)c2ccccc2)c1,inconclusive: -58.2%
17,COc1ccccc1-c1nc(-c2ccc(Br)cc2)no1,inactive: 178%
18,CCOC(=O)c1c(C)n2c3c(cc(C)cc13)CCC2,inconclusive: -47.7%
19,COc1ccc(S(=O)(=O)N(CC(=O)NCC2CCCO2)Cc2ccccc2)cc1C (centres undefined),active: -90.2%
20,COc1cc(-c2nc(-c3cccnc3)no2)cc(OC)c1OC,inactive: 24.2%
21,O=C1/C(=C/c2ccccc2)NC(=S)N1C(c1ccccc1)c1ccccc1,inactive: -19.6%
22,CCN(C(=O)COc1ccccc1)C1CCCCC1,inconclusive: -48.2%
23,O=C(CSCC(=O)Nc1ccccc1)N/N=C/c1c(O)ccc2ccccc12,active: -104%

row,SMILES,"activity change, negative = inhibition"
1,COc1ccc(NC(=O)CCN2CCN(c3cccc(Cl)c3)CC2)cc1,inactive: -10.4%
2,CCCN(CCC)C1CCc2ccc(O)cc2C1 (centres undefined),inconclusive: -41%
3,O=C(CSC1=NCCS1)N1CCN(c2ccc(Cl)cc2)CC1,active: -81.9%
4,CC1(C)CC2CC(C)(CN2C(=O)COC(=O)c2ccc(NC(=O)CC#N)cc2)C1 (centres undefined),inconclusive: -47.6%
5,Cc1cccc(N2CCN(S(=O)(=O)c3ccc4c(c3)NC(=O)CO4)CC2)c1C,inconclusive: -54.7%
6,Cc1c(C(=O)NCc2ccc(C(C)C)cc2)sc(=O)n1Cc1ccc(S(=O)(=O)N(C)C)cc1,active: -68.1%
7,Cc1ccc(C)c(N2CCN(S(=O)(=O)c3ccc4oc(=O)c5ncn(C)c5c4c3)CC2)c1,inactive: -2.32%
8,CCn1c(=O)c(CCC(=O)NCCN2CCOCC2)c(C)c2c(C)nn(-c3cccc(C)c3)c21,inconclusive: -51.6%
9,CCn1nc(C)c(Oc2ccccc2O)c1C,inactive: 1.89%
10,CCCCCCCCNS(=O)(=O)CCNC1CCCCC1,inconclusive: -44.9%
11,COC(=O)CCC(=O)c1oc2ccc(Br)cc2c1N,inconclusive: -46.4%
12,O=C(NCc1ccccc1Cl)c1csc(COCCO)n1,inactive: 27%
13,Cc1cc(OCC(=O)Nc2ccc(CN3CCCCC3)cc2)ccc1Cl,inconclusive: -53.4%
14,O=C(NC1CCN(S(=O)(=O)c2ccccc2F)CC1)c1ccco1,inactive: -28%
15,COc1ccc(CCNC(=O)c2nn(-c3ccc(C)cc3)c(=O)c3c2c2ccccc2n3C)cc1OC,inactive: 11.2%
16,CSc1ccc(CN2CCC(n3nccc3NC(=O)CCCc3ccccc3)CC2)cc1,active: -68.3%
17,Cc1ccc2nc(-c3ccco3)c(Cc3cccc(F)c3)n2c1,inactive: 13.6%
18,Cc1cc(C)c(CN2CCC(n3nccc3NC(=O)c3ccccc3Cl)CC2)cc1C,inconclusive: -41.7%
19,COC(=O)c1cn(NC(=O)c2cc(OC)cc(OC)c2)c(=O)c2ccccc12,inactive: 8.42%
20,Cn1nc([N+](=O)[O-])c(C(C#N)c2nc3ccccc3n2C)c(Cl)c1=O (centres undefined),active: -75.6%
